The results in this text go back to patent publication US20240132598A1.

The target of experiment [1] is T1, hFLT3-His fusion protein (human) (UniProt P36888).
T1 sequence (looked up): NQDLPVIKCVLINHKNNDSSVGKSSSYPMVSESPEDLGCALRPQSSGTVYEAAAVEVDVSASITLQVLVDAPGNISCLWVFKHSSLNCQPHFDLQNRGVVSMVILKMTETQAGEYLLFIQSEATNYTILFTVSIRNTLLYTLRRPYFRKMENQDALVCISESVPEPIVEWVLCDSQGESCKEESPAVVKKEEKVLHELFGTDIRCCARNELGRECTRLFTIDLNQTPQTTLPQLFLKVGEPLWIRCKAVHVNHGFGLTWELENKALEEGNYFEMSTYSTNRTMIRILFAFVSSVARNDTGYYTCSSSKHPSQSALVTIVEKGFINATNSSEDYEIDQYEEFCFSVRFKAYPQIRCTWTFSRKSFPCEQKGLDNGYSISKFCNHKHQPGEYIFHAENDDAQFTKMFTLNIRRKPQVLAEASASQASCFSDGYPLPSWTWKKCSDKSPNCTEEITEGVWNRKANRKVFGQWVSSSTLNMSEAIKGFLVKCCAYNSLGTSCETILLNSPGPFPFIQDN
The experiment can be described thus: SPR, purified subclone mAb. (In general: SPR reads the build-up and loss of mass on a sensor chip optically.)

For experiment [2], the target named is cynomolgus monkey FLT3 expressed on RMA cells (cynomolgus monkey). The experiment can be described thus: flow cytometry, purified mAb on RMA-cFLT3 cells. For orientation: In flow cytometry, cells or beads pass a laser one at a time.
The target in experiment [3] is T1, hFLT3-His fusion protein (human). The experiment can be described thus: summary of kinetics and affinity for recombinant hFLT3 protein.
The target is the same in experiment [4]. Description: SPR, purified murine subclone mAb with an hFLT3-His concentration series, 1:1 binding fit.

These are yes or no findings as the source states them, for the method shown. Some entries that bind do so weakly or less than the wild type. For some of these results: Where a sequence is shown, tags or fusion partners need not be part of it.

B1: 4H2.E3 (antibody, V domains shown)
VH: EVQLQESGPELVKPGASVKMSCKASGYTFTSYLMHWMKQKPGQGLEWIGYINPYSDGIKYNEKFRDKATLTSDKSSNTAYMELSSLTSEDSAVYYCAHSSGYVGYAMDYWGQGTSVTVSS
VL: GIVMTQTTPSVPVTPGESVSISCRSSKSLLHSNGNTYLYWFLQRPGQSPQLLIYRMSNLASGVPDRFSGSGSGTTFTLRISRVEAEDVGVYYCMQHLEYPFTFGSGTKLEIK
For B1, the binding result in experiment [1] and in experiment [2] was “binds” throughout.

B2: 4A4.A3 (antibody, V domains shown)
VH: QVTLKESGPGILQPSQTLSLTCSFSGFSLTTYGMGVGWIRQPSGKGLEWLANIWFNDNKYYNSTLKSRLTISKDTSNNQVFLKISSVDTTDTATYYCAQITTVVGTFDYWGQGSPLTVSP
VL: RIVMTQSPTTMAASPGEKITITCSASSSISSIYLHWYQQKPGFSPKLLIFRTSDLASGVPPRFGGSGSGTSYSLTIGTMEAEDVATYYCQQGSSFPRTFGGGTKLEIK
In the case of B2, the binding result in experiment [1], in experiment [3] and in experiment [2] was “binds” throughout.

B3: 12C9.E5 (antibody, V domains shown)
VH: EVQLQESGAELVRPGASVKLSCKASGYIFTDYEIHWVKQTPVHGLEWIGAIDPETGITAYSQKFKGKATLTTDTSSSTAYMEFRSLTSEDSAVYYCTRGGLLYWGQGTSVTVSS
VL: DVVMTQTPLSLSVTIGQPASISCKSSQSLLYSDGETYLNWLQQRPGQSPKRLMYQVSKLDPGIPDRFSGSGSETDFTLKISRVEAEDLGIYYCLQGTFYPHTFGGGTKLEIK
As to B3, the binding entry in experiment [1] is “binds”.

B4: 15A11.C8 (antibody, V domains shown)
VH: EVQLQESGGGLVKTGGSRKLSCAASGFTFSDYGMHWVRHTPEKGLEWVVYISSGGNTIFYTDTVKGRFTISRDNAKNTLFLQMTSLRSEDTAVYFCVRQGYYYAMDYWGQGASVTVSS
VL: DIQMTQTTSSLSASLGDRVTIRCRASQDITNYLNWYQQKPDGAVKLLISYTSILQSGVPSRFSGSGSGTDYSLTISNLEQGDVATYFCQQGSSLPWTFGGGTKLEIK
Consider B4, for which the binding entry in experiment [1] and in experiment [2] was “binds” in each case.

B5: 4A4.H7 (antibody, V domains shown)
VH: EVQLQESGPELVKPGASVKISCKASGYSFTGYYIHWVKQSPEESLEWIGEIYPNTGITTYNQKFTAKATLTVDKSSNTAYMQLKSLTSEDSAVYYCTRWGDYYGRDYWGQGTSVTVSS
VL: DIVLTQSPASLAVSLGQRATISCRASETVDTHGNSFMHWYQQKPGQPPKLLIYRASNLESGIPARFSGSGSRTDFTLTINPVEADDVATYYCQQSNEDPRTFGGGTKLEIK
Take B5: in experiment [4], the binding entry is recorded as “binds”.

B6: 1A2.A3 (antibody, V domains shown)
VH: EVQLQESGPELVKPGASVKISCKASGYSFTGYYIHWVKQSPEESLEWIGEIYPNTGITTYNQKFTAKATLTVDKSSNTAYMQLKSLTSEDSAVYYCTRWGDYYGRDYWGQGTSVTVSS
VL: DIVLTQSPASLAVSLGQRATISCRASETVDTHGNSFMHWYQQKPGQPPKLLIYRASNLESGIPARFSGSGSRTDFTLTINPVEADDVATYYCQQSNEDPRTFGGGTKLEIK
For B6, the binding result in experiment [1] and in experiment [2] was “binds” in each case.

B7: 11F4.B9 (antibody, V domains shown)
VH: EVQLQESGPELVKPGASVKISCKASGYSFTGYYIHWVKQGPEKSLEWIGEIIPSTGSTIYNQKFKAKATLTVDKSSSTAYLQLKSLTSEDSAVYYCERWGDYYGRDYWGQGTSVTVSS
VL: DIVLTQSPASLAVSLGQRATISCRASESVDIYGNSFMHWYQQKPGQPPKLLIYRASNLESGIPARFSGSGSRTDFTLTINPVEADDVATYYCQQSNEDPRTFGGGTKLEIK
In the case of B7, the binding result in experiment [1] and in experiment [2] was “binds” in each case.

B8: 14H8.E7 (antibody, V domains shown)
VH: EVQLQESGAELVKPGASVKLSCKASGYTFTNYWINWLKQRPGQGLEWIGNIYPGSTIINYNEKFKNKATLTVDTSSSTAYMQLSSLTSDDSAVYYCARRVVYLYFDSWGQGTTLTVSS
VL: QIVLTQSPAIMSASPGEKVTMTCSASSSVSYMHWYQQKSGTSPKRWIFDTSKLASGVPVRFSGSGSGTSYSLTITNMETEDAATYYCQQWSSKSPTFGGGTKLEIK
Regarding B8, in experiment [4], the binding result is “binds”.

B9: 14A5.E8 (antibody, V domains shown)
VH: EVQLQESGAELVQPGASVRLSCKASGYTFTSYWINWVKQRPGQGLEWIGNIYPGSSIINYNENFKNRATLTVDTSSSTAYMQLSSLTSDDSAVYYCARRVVYLYFDYWGQGTTLTVSS
VL: QIVLTQSPAIMSASPGEKVTMTCSASSSVSYMHWYQQKSGTSPKRWIYDTSKLASGVPARFSGSGSGTSYSLTISSMEAEDAATYYCQQWTSKSPTFGGGTKLEIK
As to B9, the binding entry in experiment [1], in experiment [3] and in experiment [2] was “binds” throughout.

B10: 12H10.G7 (antibody, V domains shown)
VH: EVQLQESGPELVKPGASVKMSCKASGYTFTRYVMHWVKQRPGQGLEWIGFINPYNDDTKYNEKFKGKATLTSDKSSSTAYMELSSLTSEDSAVYHCARWRQLGSLDSWGQGTTLTVSS
VL: NIVLTQSPASLAVSLGQRATISCRASESVDTYGSSFVHWYQQKPGQPPKLLIYLASNLESGVPARFSGSGSRSDFTLTIDPVEADDAATYYCQQNNEEPWTFGGGTKLEIK
With B10, the binding entry in experiment [1] and in experiment [2] was “binds” each time.
